Data as given in PubChem BioAssay AID1508597 (Cure First, 2020)

Assay: 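Survival screen with siRNA in ovarian cancer cells derived from patients, with or without rucaparib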 (primary screen)
System: human ovarian carcinoma lines grown from tumours: OCI-P5x (papillary serous) and OCI-C5x (clear cell)
Knock-down reagent: siRNA pool against human genes, 1.25 pmol siRNA per well
Duration: 72 h or 96 h, depending on the cell culture
Conditions: rucaparib 20 µM (about IC30) or vehicle, present until read-out
Rucaparib or vehicle: Rucaparib
Cell line: OCI-P5x (serous)
Detection: 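Luminescent ATP-based viability assay read 72 or 96 h after transfection, depending on culture, given as normalised percent viability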
Scale: viability, normalised: higher = more viable cells remaining
Hit rule: 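Active when normalised viability falls below 80 percent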
Meaning of the calls: active = viability under 80%; inactive = viability 80% or more
This is an unselected part of the about 2,100 reagents, in one setting of the screen. 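Calls flag viability under 80% in either arm, not effects specific to rucaparib; the reference for percent is not stated.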 Some reagents were tested in more than one well and are listed for each. Not given: the 100% reference.

gene	technical replicate	viability, normalised (%)	Outcome
PRKACB (protein kinase cAMP-activated catalytic subunit beta)	1	96.9	inactive
PRKACB (protein kinase cAMP-activated catalytic subunit beta)	2	94.8	inactive
PRKACB (protein kinase cAMP-activated catalytic subunit beta)	3	90.6	inactive
DPYD (dihydropyrimidine dehydrogenase)	1	77.8	active
DPYD (dihydropyrimidine dehydrogenase)	2	67.6	active
DPYD (dihydropyrimidine dehydrogenase)	3	67.3	active
KDM3A (lysine demethylase 3A)	1	47.4	active
KDM3A (lysine demethylase 3A)	2	44.8	active
KDM3A (lysine demethylase 3A)	3	39	active
LYN (LYN proto-oncogene, Src family tyrosine kinase)	1	71.3	active
LYN (LYN proto-oncogene, Src family tyrosine kinase)	2	96	inactive
LYN (LYN proto-oncogene, Src family tyrosine kinase)	3	99.3	inactive
ADK (adenosine kinase)	1	116	inactive
ADK (adenosine kinase)	2	92.4	inactive
ADK (adenosine kinase)	3	86.3	inactive
MLLT1 (MLLT1 super elongation complex subunit)	1	126	inactive
MLLT1 (MLLT1 super elongation complex subunit)	2	114	inactive
MLLT1 (MLLT1 super elongation complex subunit)	3	122	inactive
MIER2 (MIER family member 2)	1	52	active
MIER2 (MIER family member 2)	2	56.6	active
MIER2 (MIER family member 2)	3	49.9	active
EP300 (EP300 lysine acetyltransferase)	1	57.5	active
EP300 (EP300 lysine acetyltransferase)	1	72.9	active
EP300 (EP300 lysine acetyltransferase)	2	67.6	active
EP300 (EP300 lysine acetyltransferase)	2	78.3	active
EP300 (EP300 lysine acetyltransferase)	3	70	active
EP300 (EP300 lysine acetyltransferase)	3	84.4	inactive
ADGRA3 (adhesion G protein-coupled receptor A3)	1	54.4	active
ADGRA3 (adhesion G protein-coupled receptor A3)	2	64.3	active
ADGRA3 (adhesion G protein-coupled receptor A3)	3	69.8	active
IRAK3 (interleukin 1 receptor associated kinase 3)	1	93	inactive
IRAK3 (interleukin 1 receptor associated kinase 3)	2	96	inactive
IRAK3 (interleukin 1 receptor associated kinase 3)	3	96.1	inactive
TOP1 (DNA topoisomerase I)	1	75.9	active
TOP1 (DNA topoisomerase I)	2	56.8	active
TOP1 (DNA topoisomerase I)	3	66	active
SP3 (Sp3 transcription factor)	1	46.2	active
SP3 (Sp3 transcription factor)	2	47.1	active
SP3 (Sp3 transcription factor)	3	55.5	active
CDK16 (cyclin dependent kinase 16)	1	88.1	inactive
CDK16 (cyclin dependent kinase 16)	2	80	inactive
CDK16 (cyclin dependent kinase 16)	3	83.1	inactive
AK9 (adenylate kinase 9)	1	67	active
AK9 (adenylate kinase 9)	2	65.8	active
AK9 (adenylate kinase 9)	3	65.5	active
PHF23 (PHD finger protein 23)	1	48.2	active
PHF23 (PHD finger protein 23)	2	54.1	active
PHF23 (PHD finger protein 23)	3	45.4	active
CKB (creatine kinase B)	1	95.2	inactive
CKB (creatine kinase B)	2	91.4	inactive
CKB (creatine kinase B)	3	79.7	active
PDE1A (phosphodiesterase 1A)	1	55.8	active
PDE1A (phosphodiesterase 1A)	2	77.2	active
PDE1A (phosphodiesterase 1A)	3	64.3	active
CHD2 (chromodomain helicase DNA binding protein 2)	1	89.1	inactive
CHD2 (chromodomain helicase DNA binding protein 2)	2	82.9	inactive
CHD2 (chromodomain helicase DNA binding protein 2)	3	82.4	inactive

Targets listed so far whose gene name begins with K or k:
gene	technical replicate	viability, normalised (%)	Outcome
KDM3A (lysine demethylase 3A)	1	47.4	active
KDM3A (lysine demethylase 3A)	2	44.8	active
KDM3A (lysine demethylase 3A)	3	39	active
